In the supplement of paper PMC3334620:
The full ranking holds about 33,000 sequences; the median of “E-score (-0.5 to 0.5)” is about -0.0059, and the highest 2% start at about 0.26. Some of the results follow.

Molecular target: T1, Cin5 (UniProt P40917)
T1 sequence: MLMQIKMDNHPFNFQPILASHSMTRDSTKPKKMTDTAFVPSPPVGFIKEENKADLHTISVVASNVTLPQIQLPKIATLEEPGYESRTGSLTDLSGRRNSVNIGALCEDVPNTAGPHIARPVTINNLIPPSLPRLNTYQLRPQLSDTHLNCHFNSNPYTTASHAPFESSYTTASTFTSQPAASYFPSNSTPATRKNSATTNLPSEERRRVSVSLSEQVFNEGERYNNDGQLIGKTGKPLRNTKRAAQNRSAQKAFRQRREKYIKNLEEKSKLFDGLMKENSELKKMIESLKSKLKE
Assay: PBM E-score (8-mer binding enrichment) (E-score (-0.5 to 0.5)); higher = stronger / more preferred TF binding
Settings: protein concentration: 100 nM; construct: GST-full length
Procedure: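 Universal 'all 10-mer' protein binding microarrays (Agilent AMADID 015681) probed with GST-tagged S. cerevisiae TFs (full-length or DBD) made by in vitro transcription/translation (PURExpress), about 100-200 nM. Bound TF was detected with fluorescent anti-GST. Each ungapped 8-mer (which stands for itself and its reverse complement) is scored by the PBM enrichment score (E-score), a modified Wilcoxon-Mann-Whitney statistic from -0.5 to +0.5, computed with the Universal PBM Analysis Suite. Scale: above 0.35 generally sequence-specific binding.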

Point of comparison: GCATGCGC, “PBM E-score” value -0.00885. Against it:
- CGGGCGAG — higher, 0.0331
- GCAGAGGC — lower, -0.254
- AAATAACG — higher, 0.19
- AGACGCAA — higher, 0.0481
- GGGCAGAA — higher, 0.145
- CGTCTTAC — lower, -0.0902
- CCCTTACG — lower, -0.176
- CCGAAATC — higher, 0.106
- CATATCTA — higher, 0.188
- TGTGCAAA — lower, -0.043
- AGCGGGTA — higher, 0.00084
- GGCTCAAC — lower, -0.226
- CATGCCCC — lower, -0.0954
- TGTTGGAA — lower, -0.0219
- AACACGCA — higher, 0.0582
- CGTCTCCC — higher, 0.0276
- AGACTTGA — lower, -0.201
- AGTACAAT — higher, 0.194
- ACTACAGC — lower, -0.109
- CTGTCCAC — lower, -0.165
- CCACGAGG — lower, -0.0525
- AAATATAA — higher, 0.203
- AAACTGTA — higher, 0.0732
- GGTGGGGA — higher, 0.212
- ACAATTTG — higher, 0.0697
- AGTGTAAT — higher, 0.0629
- AAACGGCG — higher, 0.136
- CACTAAAC — higher, 0.113
- CCGGGCGA — lower, -0.0798
- AGCGTCGC — lower, -0.146
- AAACCGAG — higher, 0.0209
- ATGACACG — higher, 0.019
- AAGCAGGG — lower, -0.123
- AGGACGGA — lower, -0.0996
- GCATAATA — higher, 0.235
- AGGGCAAA — higher, -0.0014
- GCGCAAAC — higher, 0.151
- GCTGCAAC — lower, -0.0917
- ATGTGTTC — higher, 0.0804
- AGCGAGGA — lower, -0.064
- CATACGGA — higher, 0.178
- CATGAAAG — higher, 0.0394
- CCGGGCGC — lower, -0.297
- ATGCCCGC — lower, -0.0394
- CACATGAG — lower, -0.105
- CGAGCGCA — higher, 0.0288
- CAACTACC — higher, -0.00696
- ACTTAAAC — higher, 0.00365
- TAGACGCA — lower, -0.127
- GCCAGCAC — lower, -0.0976
- CGCACCCG — lower, -0.0458
- TCGACGAA — higher, 0.00487
- TCCGGAAA — higher, 0.232
- GTTAGGAA — lower, -0.0679
- GATTTAAA — lower, -0.0641
- CGTCTTGC — lower, -0.0513
- GCTTGTTA — higher, 0.13
- GCCCTTTA — lower, -0.201
- ACCACCAT — higher, -0.00834
- AATAAGCT — higher, 0.164
- GCTATAGC — lower, -0.33
- AAGCTAGG — higher, 0.0702
- CCCCAGTC — lower, -0.173
- CAGCAATA — higher, 0.0927
- ATCAAGAT — higher, 0.0415
- GGCCGATA — lower, -0.113
- AGGGCTTC — lower, -0.245
- TACTTTAA — higher, 0.0965
- ACAAGGGG — lower, -0.198
- ACCTATCG — higher, 0.144
- TTCACGAA — lower, -0.0758
- ATGGCTTA — higher, 0.148
- CCAATATA — higher, 0.0434
- CATTCCGG — higher, 0.0772
- CAGGCCCC — lower, -0.301
- GCCATTAC — higher, 0.0954
- AGCATAGG — higher, 0.0243
- CGGATATC — higher, 0.111
- ATAGTCGA — higher, 0.19
- ACACTAGA — higher, 0.111
- CCCATGCA — higher, -0.00485
- TCTATAAA — higher, 0.0639
- CATCTTAC — higher, 0.101
- ACAACTAT — higher, 0.157
- CGGCCCAA — lower, -0.0355
